{"source": "paper PMC7435819", "about": "“Towards the Inhibition of Protein–Protein Interactions (PPIs) in STAT3: Insights into a New Class of Benzothiadiazole Derivatives” (Molecules, 2020)", "assay": "MS study of covalent adduct formation with glutathione", "conditions": "37 °C; for covalent adducts with GSH (MS): neutral or basic pH (pH 7.4, pH 10), up to 24 h"}
{"smiles": "Cc1cc2c(cc1C)NS(=O)(=O)N2", "note": "[Compound 1, 5,6-Dimethyl-1H,3H-2,1,3-benzothiadiazole-2,2-dioxide]", "values": [{"measurement": "reactivity with GSH (MS)", "setting": "acidic pH (pH 2 buffer)", "result": "no reactivity was observed"}, {"measurement": "covalent adducts with GSH (MS)", "result": "stable covalent adducts"}]}
{"smiles": "O=[N+]([O-])c1ccc2c(c1)NS(=O)(=O)N2", "note": "[Compound 1d, 5-Nitro-1H,3H-2,1,3-benzothiadiazole-2,2-dioxide]", "values": [{"measurement": "covalent adducts with GSH (MS)", "result": "no adducts were detectable"}]}
